Results taken from PMC12622476.
These are yes or no findings as the source states them, for the method shown. In cells and extracts the contact can be indirect. Some binding calls cover weakened binding; strength is not graded here.

Amino acid sequences for entries named in this document (tags omitted).
UniProt Q61221: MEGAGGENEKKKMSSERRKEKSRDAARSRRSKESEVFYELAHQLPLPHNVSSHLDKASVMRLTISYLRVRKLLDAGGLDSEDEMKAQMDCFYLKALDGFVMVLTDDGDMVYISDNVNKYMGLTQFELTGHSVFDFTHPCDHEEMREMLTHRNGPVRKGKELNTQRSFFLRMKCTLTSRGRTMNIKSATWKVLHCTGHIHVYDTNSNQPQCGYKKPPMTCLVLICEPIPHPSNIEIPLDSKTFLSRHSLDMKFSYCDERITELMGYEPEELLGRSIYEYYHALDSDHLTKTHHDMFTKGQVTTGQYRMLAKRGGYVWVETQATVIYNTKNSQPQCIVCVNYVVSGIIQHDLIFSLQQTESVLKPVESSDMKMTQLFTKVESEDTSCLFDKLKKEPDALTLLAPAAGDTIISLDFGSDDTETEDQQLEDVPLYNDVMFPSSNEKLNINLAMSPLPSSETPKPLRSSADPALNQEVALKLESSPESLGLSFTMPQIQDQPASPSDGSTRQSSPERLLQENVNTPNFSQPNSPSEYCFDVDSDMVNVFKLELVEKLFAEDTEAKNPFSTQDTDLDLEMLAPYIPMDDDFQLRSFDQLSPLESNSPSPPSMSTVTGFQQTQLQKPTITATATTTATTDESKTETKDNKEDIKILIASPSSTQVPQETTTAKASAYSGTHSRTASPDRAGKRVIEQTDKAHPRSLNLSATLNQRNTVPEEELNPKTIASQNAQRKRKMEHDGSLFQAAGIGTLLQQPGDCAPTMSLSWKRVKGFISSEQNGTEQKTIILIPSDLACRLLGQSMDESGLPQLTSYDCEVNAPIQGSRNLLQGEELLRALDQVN
UniProt Q9WTV6: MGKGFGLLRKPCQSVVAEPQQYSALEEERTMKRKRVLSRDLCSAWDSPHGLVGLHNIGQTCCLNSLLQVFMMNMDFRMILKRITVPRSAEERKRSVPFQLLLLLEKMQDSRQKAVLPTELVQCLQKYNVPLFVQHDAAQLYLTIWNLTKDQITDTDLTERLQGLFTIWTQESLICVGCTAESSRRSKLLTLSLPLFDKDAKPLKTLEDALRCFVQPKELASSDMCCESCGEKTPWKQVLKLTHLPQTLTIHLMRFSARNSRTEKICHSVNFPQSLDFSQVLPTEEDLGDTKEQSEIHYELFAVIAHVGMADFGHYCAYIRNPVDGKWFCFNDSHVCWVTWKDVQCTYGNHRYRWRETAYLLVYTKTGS

Target: HIF-1α (mouse (endogenous in SCMECs)) (UniProt Q61221)
Assay: co-IP; endogenous proteins in SCMEC lysate (NP-40 lysis buffer) after AGAPIR agomir treatment; anti-USP18, anti-HIF-1α or control IgG pre-coupled to protein A/G PLUS-agarose beads, 4 °C overnight; western blot

USP18 (from UniProt Q9WTV6 1-368) (enzyme)
binding: binds
